Measured values as given in paper PMC7819943, “Rice protein-binding microarrays: a tool to detect cis-acting elements near promoter regions in rice”.
Some of the results follow.

By UniProt entry, the sequences of proteins in these tests, tags left out.
UniProt Q0JBA9, entry or part of it: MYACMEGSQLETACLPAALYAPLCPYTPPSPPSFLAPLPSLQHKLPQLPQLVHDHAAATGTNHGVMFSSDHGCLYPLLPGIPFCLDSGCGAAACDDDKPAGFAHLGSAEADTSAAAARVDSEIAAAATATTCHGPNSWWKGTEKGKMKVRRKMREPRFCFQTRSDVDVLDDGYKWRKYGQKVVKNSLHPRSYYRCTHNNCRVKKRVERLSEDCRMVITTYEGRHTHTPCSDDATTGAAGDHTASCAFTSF

The sequences below were run against OsWRKY34 (Oryza sativa, UniProt Q0JBA9 1-250) (assay: protein-binding microarray (RPBM); PBS, 2% BSA, 51.3 ng/ul salmon testes DNA, 50 uM zinc acetate, 200 nM TF, 25 C, 1 h; high values mean tight binding). Conditions: protein: recombinant; tags: N-terminal polyhistidine and DsRed monomer fusion (pET32a); label: CyDye5-dUTP incorporated in the synthesized complementary strand; 3' TTTTT single-stranded linker to array surface; dsDNA, one strand shown.
Summary of the method: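 Polyhistidine-tagged DsRed fusions of transcription factors, joined at the N-terminus, were expressed in E. coli BL21-CodonPlus and isolated on Ni–NTA. They were incubated at 200 nM for 1 h at 25 °C on a custom Agilent array, double-stranded and BSA-blocked, in PBS with 2% BSA, salmon testes DNA and 50 µM zinc acetate. The binding signal is per-feature fluorescence intensity (arbitrary units) read on an Axon 4000B scanner after washing.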

Row | Sequence | binding signal
1 | ACTCGCAGTCGCCGCCGCCCTCCTCCCAACCCGCGCGGCGCGGAGTCACCTAGTGCAG | 8880 fluorescence intensity (a.u.)
2 | TGGAACCATTGTGGGGTAGGATATGTTCGGTATGATCAAACGGAGTCACCTAGTGCAG | 8250 fluorescence intensity (a.u.)
3 | GCTTTCCTCTGAATTCCACACGCATTGAACCATATATAAACGGAGTCACCTAGTGCAG | 10000 fluorescence intensity (a.u.)
4 | CTCTCTTTCTCTCTCGCGGCCTCGCGTCCGCCTGCCTCCTCGGAGTCACCTAGTGCAG | 8330 fluorescence intensity (a.u.)
5 | TCCAACTTGGGGAGGGAGGGCCGTTTCAGCTCGGGCTTTTCGGAGTCACCTAGTGCAG | 17200 fluorescence intensity (a.u.)
6 | AATGCACCGGATAAAATACCACTCAATACGTTGTCTACCGCGGAGTCACCTAGTGCAG | 8230 fluorescence intensity (a.u.)
7 | AATCTCCATTCTCGTCGTCTCCTCAGCTGCTTGCGCCAAGCGGAGTCACCTAGTGCAG | 9390 fluorescence intensity (a.u.)
8 | ATCTCCGGCGTTTTTCAACCGTATGGCAATGATCATCCTTCGGAGTCACCTAGTGCAG | 11100 fluorescence intensity (a.u.)
9 | CATATGCTTAGTTTCAGCTCATTATTCTCTCATATTTGACCGGAGTCACCTAGTGCAG | 9830 fluorescence intensity (a.u.)
10 | TTTCCTTTCCTGCCCATTTGCTTAGCTATATATCTTGCAGCGGAGTCACCTAGTGCAG | 9390 fluorescence intensity (a.u.)
11 | CACTGCCTCCTAGGTACACTTTTTGTCTGCTCTTCAATTGCGGAGTCACCTAGTGCAG | 8500 fluorescence intensity (a.u.)
12 | ATTGTTAGCCTTGCTGGTGCTGCAGTTGCCTCAACCACAGCGGAGTCACCTAGTGCAG | 9080 fluorescence intensity (a.u.)
13 | CCTACGTGGTCGTGCCCCAATTCCTGCTTTTTTTCCCCTGCGGAGTCACCTAGTGCAG | 11100 fluorescence intensity (a.u.)
14 | AATTCGGCGTGCAGTGGATATGGATTTGCCCACAATCTCTCGGAGTCACCTAGTGCAG | 8320 fluorescence intensity (a.u.)
15 | TTTTGTTGGTTTCTTGGGGATATTGAATGTTTATATTATTCGGAGTCACCTAGTGCAG | 8500 fluorescence intensity (a.u.)
16 | CGGAACCACCGCCGCCGCGCCATGCCCATCTCCTCCTTGTCGGAGTCACCTAGTGCAG | 11000 fluorescence intensity (a.u.)
17 | GACGTGTTTGGTCTTCGGTTCGGTGGGTCTCAAGTTCTGACGGAGTCACCTAGTGCAG | 19400 fluorescence intensity (a.u.)
18 | CGCGGCCATCAATCCCGCGGCGGCCACCGTCTCCAAGTCCCGGAGTCACCTAGTGCAG | 8080 fluorescence intensity (a.u.)
19 | CTCCGTTATCAAATATCGTGTCTCGTTGTCGTCATCATATCGGAGTCACCTAGTGCAG | 13400 fluorescence intensity (a.u.)
20 | ATATGATATTTGTCCATCTTAATTGCTTATAAGCTGTATACGGAGTCACCTAGTGCAG | 8760 fluorescence intensity (a.u.)
21 | TTGTTCCTCAAATTTGTTCTCCTACGATCTTCAGTTGTGGCGGAGTCACCTAGTGCAG | 9220 fluorescence intensity (a.u.)
22 | CATATCTGTTGCAGGGTTAGCTTTTTCACTTCCGTAAACACGGAGTCACCTAGTGCAG | 11500 fluorescence intensity (a.u.)
23 | ATAGTTTGTTGTTTCCCAGACATAATTTTTACTAGCTTATCGGAGTCACCTAGTGCAG | 9630 fluorescence intensity (a.u.)
24 | CTCCGTCGTCGTCATCATCCACTCTCCTCTCCCCTGGTTTCGGAGTCACCTAGTGCAG | 12200 fluorescence intensity (a.u.)
25 | CATGATCACTTGCATTTCATCTTTTCATGAACGTTTTTTTCGGAGTCACCTAGTGCAG | 10700 fluorescence intensity (a.u.)
26 | TGACCTCGTACGCCGGCACCGCCATCCTGCCCAAACAATGCGGAGTCACCTAGTGCAG | 9040 fluorescence intensity (a.u.)
27 | ACTATCCCCACCCGTGTCCCGCGCGCCACGCCACGCCACGCGGAGTCACCTAGTGCAG | 12300 fluorescence intensity (a.u.)

Part of the list above, with tabs:
Row	Sequence	binding signal
8	ATCTCCGGCGTTTTTCAACCGTATGGCAATGATCATCCTTCGGAGTCACCTAGTGCAG	11100 fluorescence intensity (a.u.)
9	CATATGCTTAGTTTCAGCTCATTATTCTCTCATATTTGACCGGAGTCACCTAGTGCAG	9830 fluorescence intensity (a.u.)

Further results follow.

Row | Sequence | binding signal
28 | TGTTTATAGCATCTCTCTCGCTGCCTCCTTATAGGGCTCACGGAGTCACCTAGTGCAG | 8730 fluorescence intensity (a.u.)
29 | TGTTGACTTTTTAAAATCATGTGCTTGACAGGGCCGAACCCGGAGTCACCTAGTGCAG | 8150 fluorescence intensity (a.u.)
30 | CCGTCCGGCGAATAAACCCGCCGCCTCTCGTTTCGCCGCCCGGAGTCACCTAGTGCAG | 8680 fluorescence intensity (a.u.)
31 | CTGTAATTTCTTTTTTTCTTCCTCTTTTGTCTTAGCAGTTCGGAGTCACCTAGTGCAG | 8970 fluorescence intensity (a.u.)
32 | GAGGCGTATATTGTTGTTCTCATTCCCCAACCACTCGATCCGGAGTCACCTAGTGCAG | 9630 fluorescence intensity (a.u.)
33 | GGTGGGCCCCTGTACAGTAGCATTTTGTATTTTCTCTATTCGGAGTCACCTAGTGCAG | 11500 fluorescence intensity (a.u.)
34 | GGTCAACAAAGCCATTCCTTGCTTTCCATTCTGATTTTGTCGGAGTCACCTAGTGCAG | 12900 fluorescence intensity (a.u.)
35 | CCCTATATAAACCGCCACGCCACGCCACGGCCACCAACTCCGGAGTCACCTAGTGCAG | 8910 fluorescence intensity (a.u.)
36 | TTTTTCCCCTCCTCTCGATCGCTTGGTGTTTGTGCTTGTTCGGAGTCACCTAGTGCAG | 8590 fluorescence intensity (a.u.)
37 | AATTATTTTGCTGGGGAGCTAGGGTTTGTGGAGAACTTTTCGGAGTCACCTAGTGCAG | 9320 fluorescence intensity (a.u.)
38 | ATTTTGGATTTTATTTTTATTTTATTCCGAATATTAATTACGGAGTCACCTAGTGCAG | 8140 fluorescence intensity (a.u.)
39 | CATAGAGCTCATTCAATTCCATTACGTACATTAGCCCTCACGGAGTCACCTAGTGCAG | 8420 fluorescence intensity (a.u.)
40 | TTCAGTTTCTTTCTACGATTTTCATGCGCCTCAGCCATCCCGGAGTCACCTAGTGCAG | 8510 fluorescence intensity (a.u.)
41 | AGTTTGTCATGGTCTAAAATATTACCCAGGTGTTCTTTGACGGAGTCACCTAGTGCAG | 8760 fluorescence intensity (a.u.)
42 | GTTCATTAAATATCTTTTCTAACCCTTAGTCTGTATATCCCGGAGTCACCTAGTGCAG | 8280 fluorescence intensity (a.u.)
43 | GTTAGTTGTTGGGGAGGAGGGGTATCGGGCGGAGAGGTGGCGGAGTCACCTAGTGCAG | 15100 fluorescence intensity (a.u.)
44 | GCACAGCGCCCGCGGTCCCAGTTCAGCGCCCAGAACACCACGGAGTCACCTAGTGCAG | 8060 fluorescence intensity (a.u.)
45 | TCCCCTCTTCCCCTCGCTTCTTCGTCGGTCGACCTGCGCACGGAGTCACCTAGTGCAG | 8210 fluorescence intensity (a.u.)
46 | TCGTGCGTGCGTGAGGGAGGTCGTGGTGGTGGTGGTGGTGCGGAGTCACCTAGTGCAG | 9020 fluorescence intensity (a.u.)
47 | ACCCGGTCACCCCTCGCCCGCACCGCACGACACAAGGGCCCGGAGTCACCTAGTGCAG | 8150 fluorescence intensity (a.u.)
48 | TCTCCTGCTACGCGTGATCATTCTTTTTTTTTTTTTTTGACGGAGTCACCTAGTGCAG | 9610 fluorescence intensity (a.u.)
49 | TCTGCTTCCTACCATGTCAACCTACTAATTTGCTGGTTAACGGAGTCACCTAGTGCAG | 9950 fluorescence intensity (a.u.)
50 | AATACCCATCGGGTTCTCTTGCCCCATACCCACACCCGCGCGGAGTCACCTAGTGCAG | 10300 fluorescence intensity (a.u.)
51 | AAAGTACCCGAATCTCTTAACATACAGTTGGCATTGTCTTCGGAGTCACCTAGTGCAG | 8180 fluorescence intensity (a.u.)
52 | GGCTTTAATTGATCACTATGAATACTTGGCTTGTTGTCATCGGAGTCACCTAGTGCAG | 9040 fluorescence intensity (a.u.)
53 | CACCACCGGCCGCCTCCTCCTACCACTCTTTTCGCTTTGCCGGAGTCACCTAGTGCAG | 9530 fluorescence intensity (a.u.)
54 | TTCTATAAAATTAGTTTGACTTTGACCAAACTCAAAACGTCGGAGTCACCTAGTGCAG | 11500 fluorescence intensity (a.u.)
